Source: article PMC9564337 (Cancers, 2022)
Strings that start with PEPTIDE1 are HELM notation: dots part the residues, brackets hold end groups and non-standard residues.

Assays:
[1] = general procedure: Fmoc solid-phase peptide synthesis; 2-ClTrt-Cl resin; HBTU/HOBt/DIPEA; oxyma/DIC for 11; conditions: whole synthesis, scale 0.064 mmol, hydrotrifluoroacetate (TFA salt)
[2] = general procedure: Fmoc solid-phase peptide synthesis; H-Leu-2-ClTrt resin (loading 0.79 mmol/g); 2-ClTrt-Cl resin for 46 and 47; HBTU/HOBt/DIPEA; oxyma/DIC for 11; conditions: whole synthesis, 220 nm, hydrotrifluoroacetate (TFA salt)
[3] = general procedure: Fmoc solid-phase peptide synthesis; H-Leu-2-ClTrt resin; HBTU/HOBt/DIPEA; oxyma/DIC for 11; conditions: whole synthesis, scale 0.086 mmol, hydrotrifluoroacetate (TFA salt)

Substance | isolated mass [1] | isolated yield [1] | final HPLC purity [2] | final HPLC purity ([1]; 220 nm) | isolated mass [3] | isolated yield [3]
PEPTIDE1{[NMeArg].R.P.Y.I.[aMeLeu]}$$$$V2.0 | 11.7 mg | 15% | > 99% | – | – | –
PEPTIDE1{[NMeArg].R.P.Y.I.[cPrAla]}$$$$V2.0 | – | – | – | 99% | – | –
PEPTIDE1{[NMeArg].[Arg(carb-C4N)].P.Y.[Tle].L}$$$$V2.0 | – | – | > 99% | – | 68.7 mg | 57%
